According to PMC10132202:
These are yes or no findings as the source states them, for the method shown. For part of these data: Binding seen in cells or lysates may run through a third protein. Some binding calls cover weakened binding; strength is not graded here. For part of these data: Sequences can lack the tags named with a protein.

How the values were obtained:
Cbp6 (S. cerevisiae) [1] = target: T1, Cbp6 (S. cerevisiae) (UniProt P07253); experiment: native gel or EMSA; complexome profiling: mitochondrial membranes (100 μg) solubilised with digitonin (3 mg/mg protein), 4-16% BN-PAGE, lane cut into 60 slices, LC-MS/MS; comigration; three biological replicates averaged
T1 sequence: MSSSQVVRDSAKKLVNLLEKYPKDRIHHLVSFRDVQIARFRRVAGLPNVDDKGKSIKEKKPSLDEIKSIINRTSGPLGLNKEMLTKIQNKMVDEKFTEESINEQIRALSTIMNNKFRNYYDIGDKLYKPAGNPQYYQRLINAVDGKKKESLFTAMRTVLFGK

Qcr8 (S. cerevisiae) = target: T2, Qcr8 (S. cerevisiae) (UniProt P08525); experiment: as above
T2 sequence: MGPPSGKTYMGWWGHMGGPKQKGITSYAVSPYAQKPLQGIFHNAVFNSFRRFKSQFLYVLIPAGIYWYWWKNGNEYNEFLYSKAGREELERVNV

Cbp4 (S. cerevisiae) = target: T3, Cbp4 (S. cerevisiae) (UniProt P37267); experiment: as above
T3 sequence: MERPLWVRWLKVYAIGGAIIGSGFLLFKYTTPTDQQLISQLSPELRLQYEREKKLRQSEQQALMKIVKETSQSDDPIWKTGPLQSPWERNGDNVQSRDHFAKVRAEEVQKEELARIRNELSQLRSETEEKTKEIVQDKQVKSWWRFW

Cbp3 (S. cerevisiae) [2] = target: T4, Cbp3 (S. cerevisiae) (UniProt P21560); experiment: as above
T4 sequence: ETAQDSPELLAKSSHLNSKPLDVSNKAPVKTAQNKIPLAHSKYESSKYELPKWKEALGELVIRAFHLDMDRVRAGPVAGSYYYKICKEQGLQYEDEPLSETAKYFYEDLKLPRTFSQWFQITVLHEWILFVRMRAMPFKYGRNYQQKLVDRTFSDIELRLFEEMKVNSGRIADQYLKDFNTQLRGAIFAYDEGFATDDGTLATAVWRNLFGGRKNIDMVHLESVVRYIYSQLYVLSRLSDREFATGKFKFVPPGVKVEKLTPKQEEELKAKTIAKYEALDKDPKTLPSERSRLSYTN

Qcr7 (S. cerevisiae) = target: T5, Qcr7 (S. cerevisiae) (UniProt P00128); experiment: as above
T5 sequence: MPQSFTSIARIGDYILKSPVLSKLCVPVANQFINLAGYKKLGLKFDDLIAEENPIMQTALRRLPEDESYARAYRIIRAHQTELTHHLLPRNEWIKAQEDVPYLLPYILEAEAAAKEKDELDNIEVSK

Cbp3-HA (S. cerevisiae) = target: T6, Cbp3-HA (S. cerevisiae) (UniProt P21560); experiment: co-IP; mitochondria (500 μg) labelled with 35S-methionine, solubilised with 1% digitonin; Cbp3-HA precipitated with anti-HA antibody on Protein A-Sepharose; Cytb seen by autoradiography
T6 sequence: T4 sequence

Cbp3 (S. cerevisiae) [3] = target: T4, Cbp3 (S. cerevisiae); experiment: native gel or EMSA; mitochondria (100 μg) solubilised with 2% digitonin, 5-12% BN-PAGE, second dimension SDS-PAGE, Western blot against Cytb, Cbp3 or Cox1; comigration
Cor2 (S. cerevisiae) = target: T7, Cor2 (S. cerevisiae) (UniProt P07257); experiment: native gel or EMSA; complexome profiling: mitochondrial membranes (100 μg) solubilised with digitonin (3 mg/mg protein), 4-16% BN-PAGE, lane cut into 60 slices, LC-MS/MS; comigration; three biological replicates averaged
T7 sequence: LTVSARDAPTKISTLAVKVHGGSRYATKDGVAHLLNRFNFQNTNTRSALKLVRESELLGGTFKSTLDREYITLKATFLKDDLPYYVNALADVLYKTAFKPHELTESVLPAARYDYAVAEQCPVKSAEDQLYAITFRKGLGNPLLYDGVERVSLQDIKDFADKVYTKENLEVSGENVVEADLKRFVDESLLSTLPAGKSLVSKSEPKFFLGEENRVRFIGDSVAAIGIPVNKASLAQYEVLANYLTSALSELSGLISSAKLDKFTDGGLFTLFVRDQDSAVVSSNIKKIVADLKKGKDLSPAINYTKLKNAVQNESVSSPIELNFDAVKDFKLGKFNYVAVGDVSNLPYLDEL

Cbp6 (S. cerevisiae) [4] = target: T1, Cbp6 (S. cerevisiae); experiment: native gel or EMSA; mitochondria (100 μg) solubilised with 2% digitonin, 5-12% BN-PAGE, second dimension SDS-PAGE, Western blot against Cytb, Cbp3 or Cox1; comigration

B1: cytochrome b (protein, UniProt P00163 1-385)
chain: MAFRKSNVYLSLVNSYIIDSPQPSSINYWWNMGSLLGLCLVIQIVTGIFMAMHYSSNIELAFSSVEHIMRDVHNGYILRYLHANGASFFFMVMFMHMAKGLYYGSYRSPRVTLWNVGVIIFILTIATAFLGYCCVYGQMSHWGATVITNLFSAIPFVGNDIVSWLWGGFSVSNPTIQRFFALHYLVPFIIAAMVIMHLMALHIHGSSNPLGITGNLDRIPMHSYFIFKDLVTVFLFMLILALFVFYSPNTLGHPDNYIPGNPLVTPASIVPEWYLLPFYAILRSIPDKLLGVITMFAAILVLLVLPFTDRSVVRGNTFKVLSKFFFFIFVFNFVLLGQIGACHVEVPYVLMGQIATFIYFAYFLIIVPVISTIENVLFYIGRVNK
B1 was tested, and the binding (Cbp6 (S. cerevisiae) [1]) was “binds”, the binding (Qcr8 (S. cerevisiae)) was “binds” and the binding (Cbp4 (S. cerevisiae)) was “binds”. The binding (Cbp3 (S. cerevisiae) [2]) was “binds”, the binding (Qcr7 (S. cerevisiae)) was “binds” and the binding (Cbp3-HA (S. cerevisiae)) was “binds”. For the same binder, the binding (Cbp3 (S. cerevisiae) [3]) was “binds”.

B2: Cor1 (protein, UniProt P07256 27-457)
chain: AEVTQLSNGIVVATEHNPSAHTASVGVVFGSGAANENPYNNGVSNLWKNIFLSKENSAVAAKEGLALSSNISRDFQSYIVSSLPGSTDKSLDFLNQSFIQQKANLLSSSNFEATKKSVLKQVQDFEENDHPNRVLEHLHSTAFQNTPLSLPTRGTLESLENLVVADLESFANNHFLNSNAVVVGTGNIKHEDLVNSIESKNLSLQTGTKPVLKKKAAFLGSEVRLRDDTLPKAWISLAVEGEPVNSPNYFVAKLAAQIFGSYNAFEPASRLQGIKLLDNIQEYQLCDNFNHFSLSYKDSGLWGFSTATRNVTMIDDLIHFTLKQWNRLTISVTDTEVERAKSLLKLQLGQLYESGNPVNDANLLGAEVLIKGSKLSLGEAFKKIDAITVKDVKAWAGKRLWDQDIAIAGTGQIEGLLDYMRIRSDMSMMRW
For B2, the binding (Cor2 (S. cerevisiae)) was “binds”.

B3: CytbΔC13 (domain or fragment, UniProt P00163 1-372)
chain: MAFRKSNVYLSLVNSYIIDSPQPSSINYWWNMGSLLGLCLVIQIVTGIFMAMHYSSNIELAFSSVEHIMRDVHNGYILRYLHANGASFFFMVMFMHMAKGLYYGSYRSPRVTLWNVGVIIFILTIATAFLGYCCVYGQMSHWGATVITNLFSAIPFVGNDIVSWLWGGFSVSNPTIQRFFALHYLVPFIIAAMVIMHLMALHIHGSSNPLGITGNLDRIPMHSYFIFKDLVTVFLFMLILALFVFYSPNTLGHPDNYIPGNPLVTPASIVPEWYLLPFYAILRSIPDKLLGVITMFAAILVLLVLPFTDRSVVRGNTFKVLSKFFFFIFVFNFVLLGQIGACHVEVPYVLMGQIATFIYFAYFLIIVPVIST
B3 was tested, and the binding (Cbp6 (S. cerevisiae) [1]) was “binds”, the binding (Qcr8 (S. cerevisiae)) was “binds” and the binding (Cbp4 (S. cerevisiae)) was “binds”. The binding (Cbp3 (S. cerevisiae) [2]) was “binds”, the binding (Qcr7 (S. cerevisiae)) was “binds weakly” and the binding (Cbp3-HA (S. cerevisiae)) was “binds”. The binding (Cbp3 (S. cerevisiae) [3]) was “binds”.

B4: CytbΔC8 (domain or fragment, UniProt P00163 1-377)
chain: MAFRKSNVYLSLVNSYIIDSPQPSSINYWWNMGSLLGLCLVIQIVTGIFMAMHYSSNIELAFSSVEHIMRDVHNGYILRYLHANGASFFFMVMFMHMAKGLYYGSYRSPRVTLWNVGVIIFILTIATAFLGYCCVYGQMSHWGATVITNLFSAIPFVGNDIVSWLWGGFSVSNPTIQRFFALHYLVPFIIAAMVIMHLMALHIHGSSNPLGITGNLDRIPMHSYFIFKDLVTVFLFMLILALFVFYSPNTLGHPDNYIPGNPLVTPASIVPEWYLLPFYAILRSIPDKLLGVITMFAAILVLLVLPFTDRSVVRGNTFKVLSKFFFFIFVFNFVLLGQIGACHVEVPYVLMGQIATFIYFAYFLIIVPVISTIENVL
For B4, the binding (Cbp3-HA (S. cerevisiae)) was “binds”.

B5: Cbp3 (protein, UniProt P21560 39-335)
chain: T4 sequence
With B5 the binding (Cbp6 (S. cerevisiae) [1]) was “binds” and the binding (Cbp6 (S. cerevisiae) [4]) was “binds”.
